1 sequence from paper PMC3951440, “Assessing Specific Oligonucleotides and Small Molecule Antibiotics for the Ability to Inhibit the CRD-BP-CD44 RNA Interaction” (PLoS ONE, 2014) can be followed below.

Amino acid sequences for entries named in this document (tags omitted).
UniProt O88477, whole entry: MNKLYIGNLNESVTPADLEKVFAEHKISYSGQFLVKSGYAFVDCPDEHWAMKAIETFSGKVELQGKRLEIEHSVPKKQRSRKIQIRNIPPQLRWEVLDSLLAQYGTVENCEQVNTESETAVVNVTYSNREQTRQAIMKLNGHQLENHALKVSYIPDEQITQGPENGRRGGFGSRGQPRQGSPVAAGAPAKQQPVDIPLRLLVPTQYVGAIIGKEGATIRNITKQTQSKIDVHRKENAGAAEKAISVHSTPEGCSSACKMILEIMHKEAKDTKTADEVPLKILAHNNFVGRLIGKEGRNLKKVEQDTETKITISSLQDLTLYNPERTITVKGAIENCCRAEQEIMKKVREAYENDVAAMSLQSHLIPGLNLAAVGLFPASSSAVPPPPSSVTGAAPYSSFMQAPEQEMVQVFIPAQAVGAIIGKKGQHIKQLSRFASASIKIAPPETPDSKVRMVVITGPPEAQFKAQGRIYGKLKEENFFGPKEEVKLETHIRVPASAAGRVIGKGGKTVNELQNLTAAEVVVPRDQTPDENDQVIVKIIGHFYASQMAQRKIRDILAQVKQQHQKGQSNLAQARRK

The data set deals with CRD-BP (IMP1) (mouse) (UniProt O88477). The data set can be described thus: EMSA. The conditions noted are these: EMSA: 5 mM Tris-Cl pH 7.4, 2.5 mM EDTA, 2 mM DTT, 5% glycerol, 0.1 mg/ml BSA, 0.5 mg/ml yeast tRNA, 5 U RNasin, 30 C with ice steps, 40 nM RNA probe, recombinant protein, residues 1-577, protein details: N-terminal FLAG, C-terminal 6xHis, label: 32P-UTP internal, probe letters rebuilt from the primers and the genome.

As for “GGGAUGAGUUAAGUGCCUGGGGAGUCCCUCAAAAGGUUAAAGGGAUUCCCAUCAUUGGAAUCUUAUCACCAGAUAGGCAAGUUUAUGACCAAACAAGAGAGUACUGGCUUUAUCCUCUAACCUCAUAUUUUCUCCCACUUGGCAAGUCCUUUGUGGCAUUUAUUCAUCAGUCAGGGUGUCCGAUUGGUCCUAGAACUUCCAAAGGCUGCUUGUCAUAGAAGCCAUUGCAUCUAUAAAGCAACGGCUCCUGUUAAAUGGUAUCUCCUUUCUGAGGCUCCUACUAAAAGUCAUUUGUUACCUAAACUUAUGUG [CD44 Fragment 8 RNA]”, the binding signal reads like this: (269 nM protein) 11.5 % bound; (1885 nM protein) 81.4 % bound.
